Results deposited as PubChem BioAssay AID1224827 (NIAID, 2016).
The whole screen tested about 3,800 reagents; shown is a random part of them. About 2,200 of all reagents (57%) were called active. 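Active means a strong reporter change in either direction; calls are per siRNA, not per gene; qiagen siRNAs gave weaker effects.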 Reagents against one gene are numbered here. Not all columns of the deposit are shown. No sequences are given here.

Screen: 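Confirm genes whose knock-down changes LPS-driven TNF promoter activity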 (follow-up of hits)
Cells: RAW264.7 G9 mouse macrophage reporter clone
Reagents: single siRNA against mouse genes, 100 nM siRNA
Duration: siRNA for 2 days, then LPS about 16 h
Treatment: bacterial lipopolysaccharide (LPS), 10 ng/ml, cells fixed after overnight (about 16 h) stimulation
Detection: 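TNF promoter reporter red fluorescence in nuclei, background subtracted, normalised per plate and to non-targeting control siRNA, as z-scores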
Direction: TNF reporter z-score, mean: higher = stronger Tnf promoter reporter signal
Active means: 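Active siRNA: replicate-mean z-score of 2 or more, or -2 or less; no calls for control wells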

TNF reporter z-score, mean, by target and reagent
Tnfrsf11b: #1 0.576 inactive; #2 -1.38 inactive; #3 -2.91 active; #4 -1.86 inactive; #5 -2.91 active; #6 -5.01 active
Lmcd1 (LIM and cysteine-rich domains 1): #1 0.0202 inactive; #2 -2.72 active; #3 -5.12 active; #4 6.41 active; #5 1.98 inactive; #6 -2.64 active
G6pd2 (glucose-6-phosphate dehydrogenase 2): #1 -0.672 inactive; #2 -4.69 active; #3 -5.1 active; #4 9.06 active; #5 0.905 inactive; #6 -1.26 inactive
Tbca (tubulin cofactor A): #1 -1.93 inactive; #2 -3.23 active; #3 -4.64 active; #4 3.76 active; #5 -0.289 inactive; #6 0.0662 inactive
Pdcl3 (phosducin-like 3): #1 1.85 inactive; #2 -2.63 active; #3 -3.24 active; #4 2.49 active; #5 -0.0731 inactive; #6 -0.789 inactive
Casp4 (caspase 4, apoptosis-related cysteine peptidase): #1 -1.33 inactive; #2 -2.05 active; #3 -6.49 active; #4 0.416 inactive; #5 0.908 inactive; #6 0.425 inactive
Or5d39 (olfactory receptor family 5 subfamily D member 39): #1 -1.21 inactive; #2 -4.61 active; #3 -4.86 active; #4 4.47 active; #5 1.64 inactive; #6 -1.42 inactive
C9 (complement component 9): #1 -3.38 active; #2 -2.45 active; #3 -4.36 active; #4 2.48 active; #5 0.872 inactive; #6 -3.32 active
Lyrm2 (LYR motif containing 2): #1 2.3 active; #2 -1.25 inactive; #3 -3.14 active; #4 1.38 inactive; #5 -1.38 inactive; #6 -3.67 active
Gpr4 (G protein-coupled receptor 4): #1 1.28 inactive; #2 -0.19 inactive; #3 -1.86 inactive; #4 5.26 active; #5 1.56 inactive; #6 -2.12 active

Copied from the list:
Casp4 (caspase 4, apoptosis-related cysteine peptidase) #6, TNF reporter z-score, mean = 0.425
Tnfrsf11b #6, TNF reporter z-score, mean = -5.01
Tbca (tubulin cofactor A) #5, TNF reporter z-score, mean: -0.289
Entry for Or5d39 (olfactory receptor family 5 subfamily D member 39) #6 under “TNF reporter z-score, mean”: -1.42
Pdcl3 (phosducin-like 3) #4, TNF reporter z-score, mean: 2.49
Value of Lyrm2 (LYR motif containing 2) #1 in “TNF reporter z-score, mean”: 2.3
